Reference: PubChem BioAssay AID977607 (Broad Institute, 2014)
In all, about 1,500 compounds went through this assay and about 460 (31%) were called active. Not shown: some 1% with an inconclusive outcome.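 Rule for the calls: active = curve reaches 40% activation over neutral controls at an AC40 no higher than the top valid tested concentration; inconclusive = no clear call, values can overlap the other calls; inactive = signal moving opposite to the expected increase, and the rest.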 Only a part is listed here, and it is no random draw. Results with a measured potency or affinity are listed apart.

Test: activators of glucose-dependent insulin secretion, dose response, cell-based, INS-1E, Gaussia luciferase, luminescence, cherry-pick, set 2 (AID 977607);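 note: 0% = median of the plate neutral control wells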
Conditions: INS-1E GLuc insulin secretion reporter, 2-3 h, at 0.005 µM, active compounds read high, 100% = signal doubled over neutral wells

| Compound | max activation |
| --- | --- |
| c1ccc(N2[C@@H]3CC[C@H]2c2ccncc2C3)cc1 | inactive: -18.6% |
